PubChem BioAssay AID504764 – Drosophila RNAi Screening Center | 2011
The screen tested about 22,000 reagents; shown is an unselected part of those that have a named target and a result. Of all reagents, 403 (1.9%) are marked active. 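Unnormalised raw counts per well; ratio z-scores behind the hit calls and whether each hit raises or lowers signal are not deposited.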 Entries without a mark were called inactive. Not given: the amount of reagent.

Assay: 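Knock-downs that raise or lower a Notch target reporter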 (primary screen)
Cells: Drosophila Kc167 cells
Reagents: long dsRNA against Drosophila genes
Duration: about 5 days (4 days dsRNA, then 24 h after transfection)
Treatment: transfection of constitutively active membrane-tethered Notch lacking the extracellular domain, read 24 h later
Detection: 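Firefly luciferase from an E(spl)m3 reporter with active Notch, plus control-promoter and uninduced reporter wells for normalisation; unnormalised counts, duplicate wells a and b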
Direction: induced reporter light, run 1, well a and induced reporter light, run 1, well b: higher = more light from the Notch target reporter with active Notch; control promoter light, run 1, well a and control promoter light, run 1, well b: higher = more light from the viral control promoter (cell number, transfection, viability); uninduced reporter light, run 1, well a: higher = more light from the Notch target reporter without active Notch
Hit rule: 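Hit if the duplicate-averaged log2 ratio of induced to control-promoter light gives a plate-wise z beyond ±2, or induced to uninduced beyond ±1.8; weak-control or discordant-duplicate wells dropped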
Calls: active = modifier hit (raised or lowered Notch signal); inactive = not a hit

Against CG2321 (GeneID 43471) [DRSC15439] the deposit lists induced reporter light, run 1, well a = 1.67e5; induced reporter light, run 1, well b = 2.04e5; control promoter light, run 1, well a = 2.20e5; control promoter light, run 1, well b = 2.30e5; uninduced reporter light, run 1, well a = 12115.
Cul5 (GeneID 43434) [DRSC14723] scored induced reporter light, run 1, well a = 1.48e5; induced reporter light, run 1, well b = 1.48e5; control promoter light, run 1, well a = 2.02e5; control promoter light, run 1, well b = 2.02e5; uninduced reporter light, run 1, well a = 10855.
Knock-down of CG10341 (GeneID 35125) [DRSC02040] gave: induced reporter light, run 1, well a = 2.21e5; induced reporter light, run 1, well b = 2.04e5; control promoter light, run 1, well a = 1.93e5; control promoter light, run 1, well b = 2.30e5; uninduced reporter light, run 1, well a = 18695.
Against Lpin (GeneID 35790) [DRSC07241], the values are induced reporter light, run 1, well a = 1.58e5; induced reporter light, run 1, well b = 1.45e5; control promoter light, run 1, well a = 1.65e5; control promoter light, run 1, well b = 1.65e5; uninduced reporter light, run 1, well a = 14590.
Silencing of CG9570 (GeneID 33009) [DRSC20687] came out at: induced reporter light, run 1, well a = 1.09e5; induced reporter light, run 1, well b = 1.05e5; control promoter light, run 1, well a = 1.18e5; control promoter light, run 1, well b = 1.59e5; uninduced reporter light, run 1, well a = 11135.
Silencing of Mtk (GeneID 36708) [DRSC07475] resulted in: induced reporter light, run 1, well a = 96070; induced reporter light, run 1, well b = 1.10e5; control promoter light, run 1, well a = 1.22e5; control promoter light, run 1, well b = 1.04e5; uninduced reporter light, run 1, well a = 8405.
After knock-down of uex (GeneID 5740320) [DRSC20784] the results were induced reporter light, run 1, well a = 2.03e5; induced reporter light, run 1, well b = 2.08e5; control promoter light, run 1, well a = 3.45e5; control promoter light, run 1, well b = 3.27e5; uninduced reporter light, run 1, well a = 16280.
uex (GeneID 5740320) [DRSC20786] scored induced reporter light, run 1, well a = 2.52e5; induced reporter light, run 1, well b = 2.36e5; control promoter light, run 1, well a = 3.89e5; control promoter light, run 1, well b = 4.03e5; uninduced reporter light, run 1, well a = 18850.
With knock-down of senju (GeneID 33734) [DRSC02366] the results were induced reporter light, run 1, well a = 2.04e5; induced reporter light, run 1, well b = 1.62e5; control promoter light, run 1, well a = 1.93e5; control promoter light, run 1, well b = 1.80e5; uninduced reporter light, run 1, well a = 12105.
For CG14120 (GeneID 39463) [DRSC10124], the entry reads induced reporter light, run 1, well a = 1.71e5; induced reporter light, run 1, well b = 1.43e5; control promoter light, run 1, well a = 2.01e5; control promoter light, run 1, well b = 1.65e5; uninduced reporter light, run 1, well a = 9585.
After knock-down of mRpS14 (GeneID 117414) [DRSC19444], the screen gave induced reporter light, run 1, well a = 1.10e5; induced reporter light, run 1, well b = 1.16e5; control promoter light, run 1, well a = 1.07e5; control promoter light, run 1, well b = 1.39e5; uninduced reporter light, run 1, well a = 12660.
CG45105 (GeneID 41932) [DRSC15002] gave induced reporter light, run 1, well a = 53610; induced reporter light, run 1, well b = 46055; control promoter light, run 1, well a = 32420; control promoter light, run 1, well b = 26565; uninduced reporter light, run 1, well a = 5465.
CG45105 (GeneID 41932) [DRSC15833] gave induced reporter light, run 1, well a = 1.73e5; induced reporter light, run 1, well b = 1.44e5; control promoter light, run 1, well a = 1.57e5; control promoter light, run 1, well b = 1.59e5; uninduced reporter light, run 1, well a = 9245.

A run of entries of the results above, for reference:
senju (GeneID 33734) [DRSC02366] | induced reporter light, run 1, well a = 2.04e5; induced reporter light, run 1, well b = 1.62e5; control promoter light, run 1, well a = 1.93e5; control promoter light, run 1, well b = 1.80e5; uninduced reporter light, run 1, well a = 12105
CG14120 (GeneID 39463) [DRSC10124] | induced reporter light, run 1, well a = 1.71e5; induced reporter light, run 1, well b = 1.43e5; control promoter light, run 1, well a = 2.01e5; control promoter light, run 1, well b = 1.65e5; uninduced reporter light, run 1, well a = 9585
